These are yes or no findings as the source states them, for the method shown. Binding seen in cells or lysates may run through a third protein. Some binding calls cover weakened binding; strength is not graded here.
Target: T1, FDPS (farnesyl diphosphate synthase), as used in the co-IP (UniProt P14324)
T1 sequence: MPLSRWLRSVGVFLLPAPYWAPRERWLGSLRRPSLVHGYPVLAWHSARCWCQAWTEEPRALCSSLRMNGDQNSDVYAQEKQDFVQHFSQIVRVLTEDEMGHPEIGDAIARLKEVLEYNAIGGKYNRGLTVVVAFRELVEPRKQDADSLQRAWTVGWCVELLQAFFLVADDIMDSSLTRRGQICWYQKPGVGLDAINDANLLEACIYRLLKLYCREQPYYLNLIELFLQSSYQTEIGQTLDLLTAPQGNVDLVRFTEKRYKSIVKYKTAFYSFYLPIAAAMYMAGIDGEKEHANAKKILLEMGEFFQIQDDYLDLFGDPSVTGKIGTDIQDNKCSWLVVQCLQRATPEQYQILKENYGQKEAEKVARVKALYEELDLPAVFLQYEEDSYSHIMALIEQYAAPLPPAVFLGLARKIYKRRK
Assay: co-IP; BeaverBeads Protein A magnetic beads with 1 µg antibody; cell lysates incubated overnight at 4 °C; washed three times with Triton X-100 buffer; immunoblot

By UniProt entry, the sequences of proteins in these tests, tags left out.
UniProt P61289: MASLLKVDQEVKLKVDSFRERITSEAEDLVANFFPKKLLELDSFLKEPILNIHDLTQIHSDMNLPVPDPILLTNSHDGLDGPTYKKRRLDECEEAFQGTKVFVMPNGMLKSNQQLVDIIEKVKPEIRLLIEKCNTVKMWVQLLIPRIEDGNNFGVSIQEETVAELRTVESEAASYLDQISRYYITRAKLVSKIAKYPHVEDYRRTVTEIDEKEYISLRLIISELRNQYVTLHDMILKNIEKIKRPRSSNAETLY

- binding: binds
Substance: PSME3, as used in the co-IP (from UniProt P61289 1-254)

Source: article PMC11550803
